PubChem BioAssay AID1671195 – Yale University | 2021

Assay: 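Knockdowns that increase or decrease uptake of fluorescent LDL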 (primary screen)
Cells: human Huh7 hepatoma cells
Reagent: siRNA pool against human genes, 18 nM
Time to read-out: about 2 to 2.5 days of knockdown, then 8 h LDL uptake
Treatment: DiI-labelled LDL at 30 µg/ml for 8 h, in lipoprotein-deficient serum medium
Measurement: 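Per-cell DiI-LDL intensity by automated imaging; well means scaled to the plate median and given as a robust z-score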
Reading the numbers: robust z-score: higher = more LDL uptake after knockdown
Hit rule: 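a gene counts as active if at least two replicate z-scores exceed ±2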
Shown is a random part of about 22,000 deposited reagents. In the full data, about 1,510 (6.9%) got an active call. 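Active includes knockdowns raising or lowering LDL uptake; positive z-scores mean more uptake, negative mean less.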 No sequences are given here.

After knock-down of ETFA (electron transfer flavoprotein subunit alpha), the screen gave robust z-score, replicate 1 = -0.151; robust z-score, replicate 2 = -0.209; robust z-score, replicate 3 = -0.247; inactive.
Silencing of MTCL3 (MTCL family member 3) gave: robust z-score, replicate 1 = 0.999; robust z-score, replicate 2 = 1.98; robust z-score, replicate 3 = 1.51; inactive.
For KANK1 (KN motif and ankyrin repeat domains 1), the values are robust z-score, replicate 1 = 0.919; robust z-score, replicate 2 = -0.316; robust z-score, replicate 3 = 0.587; inactive.
TTYH3 (tweety family member 3) scored robust z-score, replicate 1 = 0.114; robust z-score, replicate 2 = 0.505; robust z-score, replicate 3 = 1.26; inactive.
Knock-down of SMDT1 (single-pass membrane protein with aspartate rich tail 1) came out at: robust z-score, replicate 1 = 0.185; robust z-score, replicate 2 = 0.535; robust z-score, replicate 3 = 0.11; inactive.
Silencing of RALBP1 (ralA binding protein 1) came out at: robust z-score, replicate 1 = 1.02; robust z-score, replicate 2 = 1.03; robust z-score, replicate 3 = 0.745; inactive.

2 successive records already listed, for reference:
KANK1 (KN motif and ankyrin repeat domains 1): robust z-score, replicate 1 = 0.919; robust z-score, replicate 2 = -0.316; robust z-score, replicate 3 = 0.587; outcome = inactive
TTYH3 (tweety family member 3): robust z-score, replicate 1 = 0.114; robust z-score, replicate 2 = 0.505; robust z-score, replicate 3 = 1.26; outcome = inactive

Further entries follow.
After knock-down of LAMP2 (lysosome associated membrane protein 2), the screen gave robust z-score, replicate 1 = 0.455; robust z-score, replicate 2 = 0.423; robust z-score, replicate 3 = 0.266; inactive.
Silencing of INHBB (inhibin subunit beta B) gave: robust z-score, replicate 1 = 0.698; robust z-score, replicate 2 = -0.591; robust z-score, replicate 3 = 0.46; inactive.
LOC441848 (retired record) showed robust z-score, replicate 1 = -0.106; robust z-score, replicate 2 = 0.674; robust z-score, replicate 3 = 0.291; inactive.
Silencing of TM4SF5 (transmembrane 4 L six family member 5) resulted in: robust z-score, replicate 1 = 0.227; robust z-score, replicate 2 = 1.55; robust z-score, replicate 3 = 0.7; inactive.
Against SLC1A1, the entry reads robust z-score, replicate 1 = -0.536; robust z-score, replicate 2 = -0.259; robust z-score, replicate 3 = -0.255; inactive.
Depletion of LOC153297 (retired record) resulted in: robust z-score, replicate 1 = -0.715; robust z-score, replicate 2 = -1.22; robust z-score, replicate 3 = 0.257; inactive.
PPP1R3B (protein phosphatase 1 regulatory subunit 3B) scored robust z-score, replicate 1 = 0.728; robust z-score, replicate 2 = 0.489; robust z-score, replicate 3 = 0.305; inactive.
Depletion of AK4 (adenylate kinase 4) came out at: robust z-score, replicate 1 = 0.722; robust z-score, replicate 2 = 0.96; robust z-score, replicate 3 = -0.341; inactive.
Silencing of PFN2 (profilin 2) gave: robust z-score, replicate 1 = 1.19; robust z-score, replicate 2 = 0.714; robust z-score, replicate 3 = -0.515; inactive.
ARHGAP39 (Rho GTPase activating protein 39) gave robust z-score, replicate 1 = -0.444; robust z-score, replicate 2 = 0.0439; robust z-score, replicate 3 = -0.213; inactive.
